The source of these data is PMC11966828.

These are yes or no findings as the source states them, for the method shown. Binding seen in cells or lysates may run through a third protein. Some results given as binding are weak or reduced against the parent protein; the word gives no strength. For some assays here: Sequences can lack the tags named with a protein.

Experiment [1] concerns the target T1, Flag-tagged edited CYP1A1 (CYP1A1_I462V) (UniProt P04798).
T1 sequence: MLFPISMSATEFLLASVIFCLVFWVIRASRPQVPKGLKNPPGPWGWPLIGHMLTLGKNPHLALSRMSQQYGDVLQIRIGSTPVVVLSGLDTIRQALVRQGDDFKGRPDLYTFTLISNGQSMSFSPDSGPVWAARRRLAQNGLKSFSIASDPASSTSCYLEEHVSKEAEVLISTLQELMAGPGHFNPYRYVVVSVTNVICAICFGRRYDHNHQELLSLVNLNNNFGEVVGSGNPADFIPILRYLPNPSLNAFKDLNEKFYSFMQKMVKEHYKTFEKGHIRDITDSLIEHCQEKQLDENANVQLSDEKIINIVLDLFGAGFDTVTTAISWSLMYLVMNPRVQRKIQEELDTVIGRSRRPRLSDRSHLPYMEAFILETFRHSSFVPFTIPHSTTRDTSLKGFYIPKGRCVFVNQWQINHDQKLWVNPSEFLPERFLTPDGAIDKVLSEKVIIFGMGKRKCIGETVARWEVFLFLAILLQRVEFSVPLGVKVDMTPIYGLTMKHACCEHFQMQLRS
Nature of the experiment: co-IP; 293T cells cotransfected with HA-HO-1 and Flag-CYP1A1 or Flag-CYP1A1-edited, lysed 24 h after transfection; anti-Flag antibody with protein G magnetic beads, 20 min at room temperature, six washes; immunoblot with anti-HA; IgG as negative control.

The target of experiment [2] is T2, endogenous CYP1A1 I462V of A549^I462V cells (human (endogenous in A549)) (UniProt P04798).
T2 sequence: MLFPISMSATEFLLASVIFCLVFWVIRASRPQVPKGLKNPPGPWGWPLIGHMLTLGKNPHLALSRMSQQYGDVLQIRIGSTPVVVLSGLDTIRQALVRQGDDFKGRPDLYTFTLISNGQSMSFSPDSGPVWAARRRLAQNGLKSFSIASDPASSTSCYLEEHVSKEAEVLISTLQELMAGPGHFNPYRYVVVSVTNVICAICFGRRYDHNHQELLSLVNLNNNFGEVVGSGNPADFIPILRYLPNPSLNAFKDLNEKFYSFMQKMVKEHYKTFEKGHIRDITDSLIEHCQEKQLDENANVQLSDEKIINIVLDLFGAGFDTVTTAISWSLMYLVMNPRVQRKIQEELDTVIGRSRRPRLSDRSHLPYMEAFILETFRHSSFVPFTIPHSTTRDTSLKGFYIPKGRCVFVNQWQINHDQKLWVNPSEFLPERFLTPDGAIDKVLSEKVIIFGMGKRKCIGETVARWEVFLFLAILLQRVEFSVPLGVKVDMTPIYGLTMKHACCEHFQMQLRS
Nature of the experiment: co-IP; endogenous co-IP from A549 or A549^I462V cells with an anti-CYP1A1 antibody; endogenous HO-1 detected by blot.

B1: HA-tagged heme oxygenase-1 (HO-1) (enzyme, UniProt P09601 1-288)
chain: MERPQPDSMPQDLSEALKEATKEVHTQAENAEFMRNFQKGQVTRDGFKLVMASLYHIYVALEEEIERNKESPVFAPVYFPEELHRKAALEQDLAFWYGPRWQEVIPYTPAMQRYVKRLHEVGRTEPELLVAHAYTRYLGDLSGGQVLKKIAQKALDLPSSGEGLAFFTFPNIASATKFKQLYRSRMNSLEMTPAVRQRVIEEAKTAFLLNIQLFEELQELLTHDTKDQSPSRAPGLRQRASNKVQDSAPVETPRGKPPLNTRSQAPLLRWVLTLSFLVATVAVGLYAM
For the molecule B1, the binding result in experiment [1] is given as “binds”.

B2: endogenous heme oxygenase-1 (HO-1) of A549 and A549^I462V cells (enzyme, UniProt P09601 1-288)
chain: MERPQPDSMPQDLSEALKEATKEVHTQAENAEFMRNFQKGQVTRDGFKLVMASLYHIYVALEEEIERNKESPVFAPVYFPEELHRKAALEQDLAFWYGPRWQEVIPYTPAMQRYVKRLHEVGRTEPELLVAHAYTRYLGDLSGGQVLKKIAQKALDLPSSGEGLAFFTFPNIASATKFKQLYRSRMNSLEMTPAVRQRVIEEAKTAFLLNIQLFEELQELLTHDTKDQSPSRAPGLRQRASNKVQDSAPVETPRGKPPLNTRSQAPLLRWVLTLSFLVATVAVGLYAM
Consider B2, for which the binding entry in experiment [2] was “binds”.
